For this data set, the target named is CA125 (carbohydrate antigen 125) (UniProt Q8WXI7). The data set is described as follows: imaging weak measurement, direct (no antibody). To be noted: CA125 100 U/mL (8th of 9 listed points); 5'-NH2; PBS+ (10 mM PBS, 5 mM MgCl2) as reference channel; aptamer 2 uM immobilized on polydopamine-coated prism, 2% blocking solution; readout at 55 min; commercial protein; single-stranded DNA.

For at least one entry, the source does not settle the construct or the ends of the probe. Whether high values mean tight binding is not given here for every scale.

Take “CTCACTACTATAGGGATAGGGAGACAAGAATAAACGCTCAA [CA125-1 aptamer]”: the binding signal was 194 a.u.

Values taken from article PMC12109719.
